Here are results for three substances from PMC5876183.

The chains behind the UniProt entries cited, without tags or fusion partners.
UniProt Q9NS91: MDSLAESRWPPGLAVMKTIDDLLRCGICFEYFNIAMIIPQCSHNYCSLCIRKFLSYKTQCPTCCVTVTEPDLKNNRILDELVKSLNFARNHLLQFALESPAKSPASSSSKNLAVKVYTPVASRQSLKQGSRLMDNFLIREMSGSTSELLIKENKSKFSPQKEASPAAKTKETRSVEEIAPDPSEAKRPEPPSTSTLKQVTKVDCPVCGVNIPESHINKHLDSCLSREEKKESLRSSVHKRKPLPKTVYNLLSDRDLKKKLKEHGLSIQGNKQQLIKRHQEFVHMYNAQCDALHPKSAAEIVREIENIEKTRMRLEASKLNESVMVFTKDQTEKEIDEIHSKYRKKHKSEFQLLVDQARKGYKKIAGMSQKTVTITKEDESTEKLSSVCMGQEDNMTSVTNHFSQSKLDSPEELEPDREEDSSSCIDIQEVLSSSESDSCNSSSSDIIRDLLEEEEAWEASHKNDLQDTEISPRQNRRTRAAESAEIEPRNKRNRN
UniProt P12004: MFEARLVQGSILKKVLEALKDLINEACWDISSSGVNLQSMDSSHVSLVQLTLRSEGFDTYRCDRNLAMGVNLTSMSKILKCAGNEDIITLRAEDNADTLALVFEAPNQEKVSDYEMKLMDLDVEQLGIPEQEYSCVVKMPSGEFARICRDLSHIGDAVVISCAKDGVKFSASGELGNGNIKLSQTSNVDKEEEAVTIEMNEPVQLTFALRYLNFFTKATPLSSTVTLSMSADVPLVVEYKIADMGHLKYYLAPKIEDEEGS
UniProt P61081: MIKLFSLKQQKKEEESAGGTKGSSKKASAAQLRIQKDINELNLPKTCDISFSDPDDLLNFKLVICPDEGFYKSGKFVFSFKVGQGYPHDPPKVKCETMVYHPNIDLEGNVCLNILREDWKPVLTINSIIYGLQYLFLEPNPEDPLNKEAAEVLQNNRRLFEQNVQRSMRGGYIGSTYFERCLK
UniProt Q96LD8: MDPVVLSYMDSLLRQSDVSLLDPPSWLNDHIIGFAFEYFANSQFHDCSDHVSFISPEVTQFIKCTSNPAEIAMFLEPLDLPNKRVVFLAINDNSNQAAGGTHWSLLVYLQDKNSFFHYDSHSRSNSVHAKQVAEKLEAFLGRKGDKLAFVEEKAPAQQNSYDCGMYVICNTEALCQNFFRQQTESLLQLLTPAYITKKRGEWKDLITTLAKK

Results are given in words; binding and its absence hold for the method and conditions named. In cells and extracts the contact can be indirect. Some results given as binding are weak or reduced against the parent protein; the word gives no strength.

One experiment has as its target 3Flag-RAD18 (UniProt Q9NS91). Put plainly: co-IP; exogenous (transfected) RAD18 and UBC12, Fig. S1C; details not shown.
The target of experiment [1] is proliferating cell nuclear antigen (PCNA) (human (endogenous in HEK293T)) (UniProt P12004). The experiment in a line: co-IP; endogenous proteins; HEK293T cells treated with H2O2 for the indicated time, lysed in Triton-X100 lysis buffer, sonicated 15 times; immunoprecipitation with antibody against PCNA.
Experiment [2] concerns the target RAD18 (human (endogenous in HEK293T)) (UniProt Q9NS91). Put plainly: co-IP; endogenous proteins; HEK293T cells lysed in NP-40 lysis buffer, sonicated 15 times; immunoprecipitation with antibody against RAD18.

Turning to Myc-UBC12 (from UniProt P61081 1-183), in the experiment with 3Flag-RAD18, the binding entry is reported as “binds”.
For “NEDP1 (from UniProt Q96LD8 1-212) (enzyme)”, the binding entry in experiment [1] is listed as “binds”.
Take UBC12 (from UniProt P61081 1-183): the binding entry in experiment [2] is recorded as “binds”.
